PMC8357632
Results are given in words; binding and its absence hold for the method and conditions named. For some assays here: In cells and extracts the contact can be indirect. Some results given as binding are weak or reduced against the parent protein; the word gives no strength. Blank lines part the entries; values can stand above or below the binder they belong to.

Legend:
[1] = target: T1, Prp9 (S. cerevisiae (endogenous in yeast whole-cell extract)) (UniProt P19736); experiment: cryo-EM structure; ΔBS-A pre-A complex assembled in yeast extract on MS2-tagged ΔBS-A Act pre-mRNA, amylose affinity purified, BS3 and glutaraldehyde gradient fixed; 5.9 Å overall, U1 4.1 Å, U2 5'-region 8.3 Å, U2 3'-region 9.5 Å; U2 components docked as rigid bodies
T1 sequence: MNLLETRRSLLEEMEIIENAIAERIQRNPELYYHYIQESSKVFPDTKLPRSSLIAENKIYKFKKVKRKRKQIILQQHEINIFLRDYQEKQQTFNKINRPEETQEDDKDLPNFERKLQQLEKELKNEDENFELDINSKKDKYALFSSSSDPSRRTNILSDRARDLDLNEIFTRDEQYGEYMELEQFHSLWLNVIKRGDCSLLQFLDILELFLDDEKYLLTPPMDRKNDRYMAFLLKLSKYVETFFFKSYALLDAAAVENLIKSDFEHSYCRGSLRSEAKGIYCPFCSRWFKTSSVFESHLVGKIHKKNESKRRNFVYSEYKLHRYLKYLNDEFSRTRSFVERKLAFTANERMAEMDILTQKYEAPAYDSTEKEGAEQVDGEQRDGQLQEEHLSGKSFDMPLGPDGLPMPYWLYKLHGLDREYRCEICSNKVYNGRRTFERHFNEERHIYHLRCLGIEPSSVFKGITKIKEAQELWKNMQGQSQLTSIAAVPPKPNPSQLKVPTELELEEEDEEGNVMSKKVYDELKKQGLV

[2] = target: T2, Prp11 (S. cerevisiae (endogenous in yeast whole-cell extract)) (UniProt Q07350); experiment: as above
T2 sequence: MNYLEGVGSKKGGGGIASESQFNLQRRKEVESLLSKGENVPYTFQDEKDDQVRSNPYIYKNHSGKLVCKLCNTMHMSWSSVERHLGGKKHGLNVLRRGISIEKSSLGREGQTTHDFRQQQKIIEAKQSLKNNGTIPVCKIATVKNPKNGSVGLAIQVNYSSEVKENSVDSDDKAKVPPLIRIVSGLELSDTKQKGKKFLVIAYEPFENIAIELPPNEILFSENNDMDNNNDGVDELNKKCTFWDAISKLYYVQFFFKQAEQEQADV

[3] = target: T3, Prp40 (S. cerevisiae (endogenous in yeast whole-cell extract)) (UniProt P33203); experiment: cross-linking; CXMS: MS2 affinity-purified ΔBS-A pre-A complexes cross-linked with 250 μM BS3 for 1 h at 8 °C, glycerol gradient, tryptic digest, mass spectrometry, pLink 2.3.9, FDR 1% or 5%
T3 sequence: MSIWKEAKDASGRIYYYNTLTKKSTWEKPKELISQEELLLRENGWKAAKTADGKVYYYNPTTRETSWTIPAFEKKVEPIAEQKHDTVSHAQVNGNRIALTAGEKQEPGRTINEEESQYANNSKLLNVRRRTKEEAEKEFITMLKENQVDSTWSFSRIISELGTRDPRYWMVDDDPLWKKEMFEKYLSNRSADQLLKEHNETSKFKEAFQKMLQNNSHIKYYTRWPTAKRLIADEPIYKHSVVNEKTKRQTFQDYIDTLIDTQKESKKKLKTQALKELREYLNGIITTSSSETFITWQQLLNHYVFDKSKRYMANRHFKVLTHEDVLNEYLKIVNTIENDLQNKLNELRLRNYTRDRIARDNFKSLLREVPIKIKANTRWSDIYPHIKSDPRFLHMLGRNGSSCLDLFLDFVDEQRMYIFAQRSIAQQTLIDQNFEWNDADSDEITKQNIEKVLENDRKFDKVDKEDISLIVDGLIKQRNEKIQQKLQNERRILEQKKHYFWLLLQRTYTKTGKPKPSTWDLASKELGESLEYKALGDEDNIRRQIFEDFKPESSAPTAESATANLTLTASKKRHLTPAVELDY

[4] = target: T4, Rse1 (S. cerevisiae (endogenous in yeast whole-cell extract)) (UniProt Q04693); experiment: as above
T4 sequence: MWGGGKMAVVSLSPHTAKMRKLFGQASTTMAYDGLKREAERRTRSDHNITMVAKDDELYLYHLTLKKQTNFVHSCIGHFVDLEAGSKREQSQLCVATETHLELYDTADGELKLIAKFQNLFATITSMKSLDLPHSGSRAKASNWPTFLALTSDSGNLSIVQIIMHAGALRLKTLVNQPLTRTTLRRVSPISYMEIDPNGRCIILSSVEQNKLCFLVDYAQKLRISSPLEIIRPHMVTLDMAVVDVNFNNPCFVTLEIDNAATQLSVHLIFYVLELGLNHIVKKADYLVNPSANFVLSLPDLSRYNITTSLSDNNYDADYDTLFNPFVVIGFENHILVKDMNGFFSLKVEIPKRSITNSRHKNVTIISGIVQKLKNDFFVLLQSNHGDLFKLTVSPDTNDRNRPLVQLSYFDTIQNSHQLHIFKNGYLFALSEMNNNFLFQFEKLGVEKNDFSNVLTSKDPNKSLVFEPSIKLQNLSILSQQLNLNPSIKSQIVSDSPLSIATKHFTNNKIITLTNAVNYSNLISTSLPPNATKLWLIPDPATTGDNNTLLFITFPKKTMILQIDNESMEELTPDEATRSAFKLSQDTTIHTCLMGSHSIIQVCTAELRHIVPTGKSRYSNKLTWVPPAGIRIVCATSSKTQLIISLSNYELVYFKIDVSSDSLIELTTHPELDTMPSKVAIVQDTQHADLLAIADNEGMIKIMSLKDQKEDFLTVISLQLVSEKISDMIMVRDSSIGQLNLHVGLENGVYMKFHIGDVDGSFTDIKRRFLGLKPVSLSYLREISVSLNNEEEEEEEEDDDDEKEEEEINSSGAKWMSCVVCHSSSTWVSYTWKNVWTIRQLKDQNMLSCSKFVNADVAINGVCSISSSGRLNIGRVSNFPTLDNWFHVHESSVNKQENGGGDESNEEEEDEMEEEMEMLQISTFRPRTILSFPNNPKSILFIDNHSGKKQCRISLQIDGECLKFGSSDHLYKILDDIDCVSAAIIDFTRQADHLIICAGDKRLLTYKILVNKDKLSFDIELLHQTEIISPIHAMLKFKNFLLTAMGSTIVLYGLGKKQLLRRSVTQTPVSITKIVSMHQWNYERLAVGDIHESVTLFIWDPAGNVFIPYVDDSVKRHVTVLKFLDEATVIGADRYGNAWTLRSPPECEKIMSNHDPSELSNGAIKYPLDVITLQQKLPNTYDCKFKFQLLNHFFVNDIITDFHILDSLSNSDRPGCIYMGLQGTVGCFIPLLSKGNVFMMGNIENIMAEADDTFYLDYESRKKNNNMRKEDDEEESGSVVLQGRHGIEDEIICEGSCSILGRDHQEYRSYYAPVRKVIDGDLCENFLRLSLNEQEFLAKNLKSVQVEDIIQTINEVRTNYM

binding [1]: binds | binding [2]: binds
B1: Hsh49 (protein, UniProt Q99181 1-213)
chain: MNYSADSGNTVYVGNIDPRITKEQLYELFIQINPVLRIKYPKDKVLQAYQGYAFIEFYNQGDAQYAIKIMNNTVRLYDRLIKVRQVTNSTGTTNLPSNISKDMILPIAKLFIKNLADSIDSDQLVKIFNKFGKLIREPEIFYLSNGKLKCAYVYFEDFEKADLAIKSLNNQLVANNRITVDYAFKENGKGNAKYGDDVDRLLNKEALKHNMLK

binding [3]: binds
B2: Msl5–Mud2 (complex, UniProt Q12186 1-476; P36084 1-527)
chain 1: MSFRRINSRYFENRKGSSMEEKKAKVPPNVNLSLWRKNTVESDVHRFNSLPSKISGALTREQIYSYQVMFRIQEITIKLRTNDFVPPSRKNRSPSPPPVYDAQGKRTNTREQRYRKKLEDERIKLVEIALKTIPYFVPPDDYKRPTKFQDKYYIPVDQYPDVNFVGLLLGPRGRTLRKLQEDSNCKIAIRGRGSVKEGKNASDLPPGAMNFEDPLHCLIIADSEDKIQKGIKVCQNIVIKAVTSPEGQNDLKRGQLRELAELNGTLREDNRPCPICGLKDHKRYDCPNRKIPNIQGIVCKICGQTGHFSRDCNSSSQRMSRFDRNATVNNSAPIQSNDVHYNSNTHPIQAPKRSRYDNNSTEPPLKFPASSRYAPSPSPPASHISRQAQNVTPTPPPGLTSSSFSSGVPGIAPPPLQSPPESEQPKFSLPPPPGMTTVQSSIAPPPGLSGPPGFSNNMGNDINKPTPPGLQGPPGL
chain 2: MADEKRLEDLRSKIMESIGKSEKDVVPIENKRFNTDNAVIDTHFKRQKSDGELPKAPKSRNVSHSNNRGPSSIITMSTNRTTYEQTRAGPHRQSYRDASGRSYNRENRYSSHNTGPQWNNNPYNRQRDERRGRNERFDRRGRNGNGNYDRFNYQRKNEGSKFNGDRDKRQLQTNKYDMNYNSQNVMYPGSSFDSPAYYNMASSKANSRLVISGLSQSSDPSIVARLKDLLENFISGLQKTESNAEDFKISNFYIGEGRPDHIIVEFSSQICSTMVLACRSFFNAKLGTFDLKWRRPNDYVQQLDHLVDFCRGTVIALENLENIGEGEDYRMKELFSSLNVTNGTAKPLFYKCSSNTNNTGKESEFTKCILLSFEVVTQDILDKLKPYKWFKPNDGKISQVTSWITFQSLPNLVTQSVRVESRVLLLLNCLDPLDLKDETFITEIKETLKYSIAGADTIKICQPGVDYRLNFENLASGAGNIYIKFKTLEAAKHAMEELPGTQFNDRTVLCTYIDEDDFDMMEATQLS

binding [4]: binds | binding [3]: binds
B3: Snu71 (protein, UniProt P53207 1-620)
chain: MRDIVFVSPQLYLSSQEGWKSDSAKSGFIPILKNDLQRFQDSLKHIVDARNSLSETLLNSNDDGSIHNSDQNTGLNKDKEASIADNNSANKCATSSSRYQELKQFLPISLDQQIHTVSLQGVSSSFSRGQIESLLDHCLNLALTETQSNSALKVEAWSSFSSFLDTQDIFIRFSKVDEDEAFVNTLNYCKALFAFIRKLHEDFKIELHLDLNTKEYVEDRTGTIPSVKPEKASEFYSVFKNIEDQTDERNSKKEQLDDSSTQYKVDTNTLSDLPSDALDQLCKDIIEFRTKVVSIEKEKKMKSTYEESRRQRHQMQKVFDQIRKNHSGAKGSANTEEEDTNMEDEDEEDDTEDDLALEKRKEERDLEESNRRYEDMLHQLHSNTEPKIKSIRADIMSAENYEEHLEKNRSLYLKELLHLANDVHYDHHRSFKEQEERRDEEDRAKNGNAKELAPIQLSDGKAISAGKAAAITLPEGTVKSENYNADKNVSESSEHVKIKFDFKKAIDHSVESSSEDEGYRESELPPTKPSERSAAEDRLPFTADELNIRLTNLKESRYVDELVREFLGVYEDELVEYILENIRVNQSKQALLNELRETFDEDGETIADRLWSRKEFRLGT
